Experimental data published in PMC12040169 (PLOS Biology, 2025).
Some of the results follow.

What follows are compounds tested on T1, CTL2-GFP (C. trachomatis L2/434/Bu, GFP-expressing). Settings: bulk GFP, single well; 28.5 h, 10 µM; inhibitor.
T1 construct: L2/434/Bu, GFP-expressing
Set-up: species or system HeLa; Intracellular C. trachomatis growth in HeLa cells, bulk GFP fluorescence relative to DMSO
For Cc1ccc(C(=O)N2C[C@H]3NC(=O)c4ccccc4C(=O)[C@@]3(C)C2)cc1 [CBK285315], the “% of control remaining” value was 131.749%.
For CC(=O)N1CCN(C(C(=O)O)c2c[nH]c3cc(NC(=O)c4ccccc4)ccc23)CC1 (stereo not shown) [CBK286680], the “% of control remaining” value was 153.025%.
With CCn1cc(C(=O)N2CCCC2c2nccs2)c(=O)c2ccc(C)nc21 (stereo not shown) [CBK307171] the “% of control remaining” value was 141.234%.
O=P(O)(CCc1ccncc1)CN1CCOCC1 [CBK262317] was tested, and the “% of control remaining” value was 118.333%.
With Cc1ccc(S(=O)(=O)CC(CN2CCOCC2)N2CCOCC2)cc1 (stereo not shown) [CBK264590] the “% of control remaining” value was 100%.
FC(F)(F)c1ccc(-c2c[nH]c([C@@H]3COCCN3Cc3csnn3)n2)cc1 [CBK289318] was tested, and the “% of control remaining” value was 136.066%.
For O=C(NCCc1ccsc1)N1CCN(c2ccncc2)CC1 [CBK305595], the “% of control remaining” value was 111.629%.
N#C/C(=C\c1ccc(O)cc1)c1nc(-c2ccc3c(c2)OCO3)cs1 [CBK262370] was tested, and the “% of control remaining” value was 100%.
With CCCc1[nH]n(CCc2ccccc2)c(=O)c1Cc1c(Cl)cccc1Cl [CBK112499] the “% of control remaining” value was 90.2257%.
With C=CCn1cc(CN2CCc3nc(C)[nH]c(=O)c3C2)c2ccccc21 [CBK282376] the “% of control remaining” value was 141.415%.
CCN(CC)CCCN1C(=O)CSC1c1ccc2c(c1)OCO2 (stereo not shown) [CBK263482C] was tested, and the “% of control remaining” value was 100%.
CN1CCN(CCP(=O)(c2ccccc2)c2ccccc2)CC1 [CBK020260] was tested, and the “% of control remaining” value was 100%.
With O=C(NCCN1CCOCC1)C1CC2CCC1C2 (stereo not shown) [CBK026764] the “% of control remaining” value was 116.483%.
In the case of CCCC/C=C/c1cn2ccnc2c(NCCc2ccccn2)n1 [CBK066275], the “% of control remaining” value is reported as 119.503%.
With CCn1c2ccccc2n2c(SCCC(=O)O)nnc12 [CBK267135] the “% of control remaining” value was 155.735%.
COc1ccccc1C1(O)CC2CCC(C1)N2 (stereo not shown) [CBK281369] was tested, and the “% of control remaining” value was 143.073%.
With CC[C@H]1CN(C(=O)NC(C)C)CC[C@H]1CC(=O)Nc1nccs1 [CBK288774] the “% of control remaining” value was 108.598%.
With COc1ccc(C)cc1-n1ccc(C(=O)NC(C)(C)C(N)=O)n1 [CBK305789] the “% of control remaining” value was 178.999%.
With Clc1ccc(-c2csc3ncnc(SCc4ccco4)c23)cc1 [CBK265972] the “% of control remaining” value was 139.072%.
In the case of CCCC(=O)c1ccc(S(=O)(=O)N2CCCN(Cc3ccc(F)cc3Cl)CC2)cc1 [CBK062917], the “% of control remaining” value is reported as 109.451%.
With Clc1cccc(-c2cncc(NCc3ccc4c(c3)OCO4)n2)c1 [CBK065323] the “% of control remaining” value was 102.17%.
With CCOC(=O)c1csc(C2CCCN2C(=O)c2ccoc2C)n1 (stereo not shown) [CBK304080] the “% of control remaining” value was 120.139%.
For COc1cccc(Nc2c(C(=O)N3CCCCC3)cnc3nc(C)ccc23)c1 [CBK287817], the “% of control remaining” value was 90.7283%.
With Oc1ccc2cc(-c3cccc(C(F)(F)F)c3)cnc2n1 [CBK081285] the “% of control remaining” value was 67.2038%.
In the case of O=C(c1ccccc1-c1ccccc1)N1CCn2cnnc2C1 [CBK283789], the “% of control remaining” value is reported as 134.726%.
In the case of CCN1CCN(c2c(Cl)cccc2NC(=O)c2ccc(N3CCOCC3)c([N+](=O)[O-])c2)CC1 [CBK269066], the “% of control remaining” value is reported as 99.2316%.
In the case of CCC(C)c1ccc(NC(=S)NCCn2cc(Cl)cn2)cc1 (stereo not shown) [CBK267101], the “% of control remaining” value is reported as 97.0389%.
In the case of COc1ccccc1CNCCNC(=O)OC(C)(C)C [CBK056694], the “% of control remaining” value is reported as 82.7754%.
For C/C(Nc1ccc(S(=O)(=O)Nc2nccc(C)n2)cc1)=C1\C(=O)N(c2nc3ccccc3s2)N=C1C(F)(F)F [CBK263002], the “% of control remaining” value was 18.8224%.
With CCCC(=O)N[C@@H](C)Cn1c(C(F)(F)F)cc2cccnc21 [CBK283232] the “% of control remaining” value was 124.111%.
CN(C)c1ccc(-c2nnnn2[C@H]2CO[C@H]3[C@@H]2OC[C@H]3O)cc1 [CBK289481] was tested, and the “% of control remaining” value was 117.806%.
With OC1(CCCN2CCOCC2)C2CCCC1CN(Cc1ccccc1)C2 (stereo not shown) [CBK025076C] the “% of control remaining” value was 129.583%.
For FC(F)(F)c1cccc(OCCN2CCNCC2)n1 [CBK113291], the “% of control remaining” value was 114.468%.
With COc1ccc(CCNC(=O)NS(=O)(=O)c2ccc(C)cc2)cc1OC [CBK300510] the “% of control remaining” value was 145.394%.
For CC(=O)N1CCC[C@@H]1C(=O)N1CC[C@@H]2NC(=O)[C@H](Cc3ccccc3)NC(=O)C3(C/C=C/C[C@@H]2C1)CCOCC3 [CBK292195], the “% of control remaining” value was 135.085%.
COc1cccc(OCCCCCc2c(C)n[nH]c2C)c1 [CBK261805] was tested, and the “% of control remaining” value was 100.543%.
With COc1ccccc1NC(=O)CCSc1nc(C)cc(C)n1 [CBK266371] the “% of control remaining” value was 118.946%.
In the case of O=[N+]([O-])c1ccc(CN2CCN(c3nccnc3Oc3ccc(F)cc3)CC2)cc1 [CBK083015T], the “% of control remaining” value is reported as 116.359%.
With Cc1ccccc1Nc1nc(N)nc(CN2CCOC3CCCC32)n1 (stereo not shown) [CBK305181] the “% of control remaining” value was 68.1927%.
COc1ccc(S(=O)(=O)NCCN2CCOCC2)c(Cl)c1Cl [CBK269999] was tested, and the “% of control remaining” value was 132.548%.
